Results from PubChem BioAssay AID504648 (National Center for Advancing Translational Sciences (NCATS), 2011).
Among all 390,000 compounds or so, about 610 (0.16%) were called active. All entries are inconclusive by the source's own rule. Clear calls are listed elsewhere. Calls come from the whole dose curve; as a rule, active = well fitted inhibition curve with a large enough effect; inconclusive = small, poorly fitted or top-dose-only effect, or effect the other way, or another doubt; inactive = no such curve, though single readings can be large or run the other way.

Assay: Nrf2 qHTS screen for inhibitors: counterscreen for cytotoxicity
Details: A549 ARE-Fluc cells, CellTiter-Fluor viability, 18-24 h
Source text: NIH Molecular Libraries Probe Production Network [MLPCN]
NIH Chemical Genomics Center [NCGC]
Assay Provider: Shyam Biswal, Johns Hopkins University
Nrf2 is a transcription factor that maintains cellular redox homoestasis and protects cells from xenobiotics. Nrf2 binds to the antioxidant response element (ARE) to induce gene expression of a broad spectrum of genes that encode for antioxidants. […] Finding a small molecule that act as an inhibitor of Nrf2 function would represent a novel therapeutic target that could lead to improvement in survival of patients undergoing chemo- and/or radio- therapy.
So here we implemented a counterscreen to weed out the cytotoxic compounds.
1. Shibata, T., et al., Genetic Alteration of Keap1 Confers Constitutive Nrf2 Activation and Resistance to Chemotherapy in Gallbladder Cancer. Gastroenterology, 2008.
2. Sjoblom, T., et al., The consensus coding sequences of human breast and colorectal cancers. Science, 2006. 314(5797): p. 268-74.
NCGC Assay Protocol Summary:
A concentration-response assay was performed with A549 ARE_Fluc cells which are suspended in 5% FBS OPTI-MEM. Five uL were dispensed into 1536-well white TC-treated plate using the Kalypsys dispenser to achieve a density of 5000 cells/well in all columns except column 1. The plate is incubated at 37deg C at 5% CO2 for 2 hours before 23 nL of compounds are added with the Kalypsys pin tool equipped with a 1,536-pin array containing 10-nL slotted pins (FP1S10, 0.457-mm diameter, 50.8 mm long; V&P Scientific). The control compounds Budesonide and Staurosporine are both added at a concentration of 2mM and Budesonide is also added as a 1:10 titration, starting at 200uM, to achieve dose-response. After an 18-24 hour incubation at 37deg C at 5% CO2, 5ul of medium is added to column 1. Afterwards 1ul of 5x of CellTiter-Fluor (Promega) is added to every well. The plate is then incubated at 37deg C at 5% CO2 for 30 minutes before they are read on the ViewLux (Perkin Elmer) for a fluorescent read Ex=405(10)/Em=525(10) for a 3 second exposure, 2x binning, and high gain. Then 3 uL of 3x BugLite is dispensed into all wells and the plate is incubated at ambient room temperature for 15 minutes. Afterwards another ViewLux read is performed using the clear filter to get a luminescent read with the settings of 40 second exposure, 2x binning, and high gain. Cytotoxicity is assessed through the first fluorescent read and then biochemical activity against Nrf2 is measured in the luminescent read.
Potency is the fitted concentration of half-maximal effect.

Compound | Potency
CC1=C2N=C(C=C3N=C(C(C)=C4[N-][C@@](C)([C@@H]5N=C1[C@](C)(CCC(=O)NC[C@@H](C)OP(=O)([O-])O[C@H]1[C@@H](O)[C@@H](n6cnc7cc(C)c(C)cc76)O[C@@H]1CO)[C@H]5CC(N)=O)[C@@](C)(CC(N)=O)[C@@H]4CCC(N)=O)[C@@](C)(CC(N)=O)[C@@H]3CCC(N)=O)C(C)(C)[C@@H]2CCC(N)=O.[C-]#N.[Co+3] | inconclusive: 16.4 µM
CC1CCOC(=O)C=CC=CC(=O)OC2CC3OC4C5OC5(C)CCC4(COC(=O)C1O)C2(C)C31CO1 (configuration not stated) | inconclusive: 0.13 µM
CC1CCOC(=O)C=CC=CC(=O)OC2CC3OC4C5OC5(C)C(O)CC4(COC(=O)C1O)C2(C)C31CO1 (configuration not stated) | inconclusive: 2.59 µM
Cc1cc(C)cc(OP(C)(=O)Nc2ccc(SC(F)(F)F)cc2)c1 (configuration not stated) | inconclusive: 29.1 µM
CP(=O)(OC12CC3CC(CC(C3)C1)C2)OC12CC3CC(CC(C3)C1)C2 | inconclusive: 29.1 µM
Nc1ccc2c(ccc3cccnc32)n1.O=[N+]([O-])c1cc([N+](=O)[O-])c(O)c([N+](=O)[O-])c1 | inconclusive: 23.1 µM
Cc1cc(C)cc(OP(C)(=O)Nc2cccc(C(F)(F)F)c2)c1 (configuration not stated) | inconclusive: 29.1 µM
O=[N+]([O-])c1cc([N+](=O)[O-])c(Nc2ccccn2)c([N+](=O)[O-])c1 | inconclusive: 20.6 µM
CC(=O)OC1C(=O)OCC23CCC4(C)OC4C2OC2CC(OC(=O)C=CC=CC(=O)OCCC1C)C3(C)C21CO1 (configuration not stated) | inconclusive: 0.103 µM
CC(C)c1ccc(OP(C)(=O)Nc2ccc(SC(F)(F)F)cc2)cc1 (configuration not stated) | inconclusive: 29.1 µM
Cc1cc(-c2cccc3ccccc23)c(C)cn1.O=[N+]([O-])c1cc([N+](=O)[O-])c(O)c([N+](=O)[O-])c1 | inconclusive: 23.1 µM
CC1=CC2OC3CC4OC(=O)C=CC=CC(=O)OCCC(C)C(O)C(=O)OCC2(CC1O)C4(C)C31CO1 (configuration not stated) | inconclusive: 0.411 µM
